From US6468985B1, “Retinoblastoma protein-interacting zinc finger proteins” (The Burnham Institute, priority 1994, dated 2002)
No constants are given. Whether binding was seen depends on the method and setting. Some entries that bind do so weakly or less than the wild type.

Biological target: T1, hypophosphorylated Rb (pRb) from HT1080 cell extract (UniProt P06400)
T1 sequence (hypophosphorylated form, looked up): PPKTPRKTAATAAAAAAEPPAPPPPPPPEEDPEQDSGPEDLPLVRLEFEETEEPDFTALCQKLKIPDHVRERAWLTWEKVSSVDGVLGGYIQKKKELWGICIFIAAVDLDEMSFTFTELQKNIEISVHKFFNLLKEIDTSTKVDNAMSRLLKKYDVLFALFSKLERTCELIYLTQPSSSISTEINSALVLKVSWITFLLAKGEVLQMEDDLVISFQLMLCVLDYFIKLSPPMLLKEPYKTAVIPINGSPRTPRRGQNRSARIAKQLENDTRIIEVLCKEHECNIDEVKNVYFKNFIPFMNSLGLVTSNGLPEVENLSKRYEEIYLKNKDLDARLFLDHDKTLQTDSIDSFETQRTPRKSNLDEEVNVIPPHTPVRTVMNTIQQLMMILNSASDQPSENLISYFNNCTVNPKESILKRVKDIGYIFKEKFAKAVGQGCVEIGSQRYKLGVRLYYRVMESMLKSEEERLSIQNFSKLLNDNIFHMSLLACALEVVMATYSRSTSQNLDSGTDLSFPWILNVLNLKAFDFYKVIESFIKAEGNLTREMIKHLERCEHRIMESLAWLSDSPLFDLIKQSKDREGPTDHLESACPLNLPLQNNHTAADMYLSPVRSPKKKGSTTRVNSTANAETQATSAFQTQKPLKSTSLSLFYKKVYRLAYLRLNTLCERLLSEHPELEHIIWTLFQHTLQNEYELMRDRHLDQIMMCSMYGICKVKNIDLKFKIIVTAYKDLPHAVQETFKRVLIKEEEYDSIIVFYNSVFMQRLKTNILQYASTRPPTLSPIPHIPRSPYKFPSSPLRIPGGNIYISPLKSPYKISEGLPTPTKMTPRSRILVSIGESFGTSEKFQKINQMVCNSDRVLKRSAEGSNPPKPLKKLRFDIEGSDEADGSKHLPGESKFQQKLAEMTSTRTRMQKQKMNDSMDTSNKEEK
Experiment: competition against GST-RIZ (215-462) for Rb in HT1080 extract

E1A protein from a cell lysate of 293 cells stably transfected to express E1A (from UniProt P03255 1-289)
binding: binds
